The values are deposited in ChEMBL (CHEMBL3988442, “University of Dundee, Small-Polar-MMV Screening Library” (2021)).

Protein sequences, listed by entry. Tags and fused reporters are not part of them.
UniProt E9BF75, entry or part of it: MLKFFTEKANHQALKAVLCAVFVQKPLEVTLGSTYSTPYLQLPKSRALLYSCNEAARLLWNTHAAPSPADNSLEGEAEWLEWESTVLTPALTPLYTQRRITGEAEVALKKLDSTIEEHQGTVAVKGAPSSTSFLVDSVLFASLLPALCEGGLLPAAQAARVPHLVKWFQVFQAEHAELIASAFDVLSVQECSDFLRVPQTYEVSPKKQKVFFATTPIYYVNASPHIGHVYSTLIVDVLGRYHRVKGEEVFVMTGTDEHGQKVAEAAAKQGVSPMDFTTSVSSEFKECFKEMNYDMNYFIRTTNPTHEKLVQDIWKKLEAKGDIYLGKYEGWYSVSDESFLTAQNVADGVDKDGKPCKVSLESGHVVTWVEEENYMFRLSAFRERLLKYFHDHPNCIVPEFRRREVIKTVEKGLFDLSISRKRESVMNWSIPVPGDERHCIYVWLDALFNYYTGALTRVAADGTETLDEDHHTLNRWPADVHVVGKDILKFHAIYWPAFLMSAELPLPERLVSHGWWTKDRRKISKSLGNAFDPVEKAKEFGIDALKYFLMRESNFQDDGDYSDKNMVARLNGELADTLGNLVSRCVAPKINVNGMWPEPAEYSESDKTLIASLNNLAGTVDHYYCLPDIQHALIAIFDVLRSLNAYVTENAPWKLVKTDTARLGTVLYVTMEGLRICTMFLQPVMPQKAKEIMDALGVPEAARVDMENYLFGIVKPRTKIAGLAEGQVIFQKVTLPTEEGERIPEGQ

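Primary screen of methionyl-tRNA synthetase; the read-out is not stated. Target: Methionyl-tRNA synthetase (putative), Leishmania donovani (UniProt E9BF75). The test concentration is not given. The values are filed as inhibition. Size under these conditions: about 68,000 compounds, about 24 of them at 50% or above in at least one test.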

All values are in %.
How 0% and 100% were set is not recorded. Most values in the screen are low, and negative values occur.
The compounds are a random part of those screened.

For CC1(C)CC(N2Cc3nc(N4CCCC4)ncc3C2=O)CC(C)(C)N1 the result was -2.764%.
For Fc1ccc(CN2CCCC(c3nccnc3-n3ccnc3)C2)cc1 (centres unmarked) the result was 11.65%.
For Cc1ccc(CN2CC[C@H]3OCC[C@@H](C(=O)NCC4CC4)[C@@H]3C2)s1 the result was 10.37%.
For Cc1nn(C(C)C)c(C)c1S(=O)(=O)Nc1ccc(C(=O)O)cc1 the result was 12.41%.
For COC(=O)c1ccoc1CN(C)Cc1ccccc1 the result was 1.545%.
For NC1CCCCN(Cc2cc(-c3ccccc3OC(F)(F)F)no2)C1 (centres unmarked) the result was 19.23%.
For CCCS(=O)(=O)N1C[C@H]2OC(=O)N(CCc3cccc(Cl)c3)[C@H]2C1 the result was 19.51%.
For c1ccc(NCCn2cc(C3CCCNC3)nn2)cc1 (centres unmarked) the result was 5.498%.
For Cc1nc(CN2CCCN(CCOc3cccc(C#N)c3)CC2)no1 the result was 8.661%.
For CCn1nc(C(=O)N2CCCC(n3cncn3)C2)ccc1=O (centres unmarked) the result was 15.28%.
For Cc1noc(C(C)N2CCc3[nH]c4ccc(Cl)cc4c3C2)n1 (centres unmarked) the result was 17.13%.
For O=C(NCc1ccncc1)C1=NOC2(CCCNC2)C1 (centres unmarked) the result was 4.575%.
For CCc1noc(CS(=O)(=O)c2cccc(OC)c2)n1 the result was 11.65%.
For COCCC(=O)N1CC[C@@H](N(C)C)[C@@H]1Cc1ccccc1 the result was 11.5%.
For COC[C@@]12CCO[C@@H]1CCN(C(=O)Cc1ccccc1F)C2 the result was 10.5%.
For Cc1ccc(CNC(=O)c2nc3c(o2)CN(c2ncccn2)C3)o1 the result was 17.75%.
For Cc1cccc(C(=O)NC(CN2CCCC2=O)c2ccccc2)n1 (centres unmarked) the result was 18.37%.
For COc1ccc(OC)c(C(C)NS(=O)(=O)c2cn(C)nc2C)c1 (centres unmarked) the result was 8.421%.
For CN(CCN1CCOC1=O)CC(=O)Nc1ccc(Cl)c(Cl)c1 the result was 13.64%.
For Cc1nonc1C1CCCN1C(=O)c1cc2n(n1)CCCN(C(C)C)C2 (centres unmarked) the result was -2.29%.
For Cc1ccc(Cn2c(=O)[nH]c3csnc3c2=O)cc1 the result was 9.115%.
For CC(=O)N1CCN(c2ncnc3cc4c(cc23)OCCO4)CC1 the result was 27.39%.
For NC(=O)C1CCN(c2ccc3cc(Br)ccc3n2)C1 (centres unmarked) the result was 8.982%.
For Nc1cc(N2CCOCC(Cc3ccc4[nH]ccc4c3)C2)ncn1 (centres unmarked) the result was 30.32%.
For CS(=O)(=O)c1ccc(OCCNCc2ccc(F)cc2F)cc1 the result was 17.5%.
For Cc1cc(NC(=O)CN(C)C2CCCN(c3cccnn3)C2)on1 (centres unmarked) the result was 6.983%.
For CC1CCCN(c2ccccc2OCC(=O)N2CCOCC2)C1 (centres unmarked) the result was 10.57%.
For Nc1ncccc1CN1C[C@@H](C(=O)O)[C@H](c2cccc(F)c2)C1 the result was 15.81%.
For O=C(COCC1CC[C@H]2[C@H](CCN2c2ncccn2)O1)N1CCCC1 (some centres unmarked) the result was 12.5%.
For O=C(Cc1cnn(-c2ccccc2)n1)NC1CCOCC1 the result was 2.419%.
For CC1(C)OC(=O)N(CCOc2ccc(F)cc2)C1=O the result was 19.81%.
For COc1cc(N2CCCn3cnc(COCCO)c3C2)ncn1 the result was 10.03%.
For Cc1ccc(N2CCC3(CCN(C(=O)c4ccoc4)CC3)CC2)nn1 the result was 12.5%.
For COC(=O)CCNC(=O)c1cc(-c2ccc(OC)cc2)nn1C the result was 15.33%.
For CN(C)c1cnn(CC(=O)N2Cc3ccccc3C2)c(=O)c1 the result was 10.84%.
For Cc1cc(C)n(CNc2nonc2C(N)=O)n1 the result was -1.892%.
For CCNC(=O)[C@@H]1C[C@@H](NC(=O)Cc2ccccn2)CN1CCCSC the result was 2.5%.
For CC(=O)N1CCc2c(nc(N(C)C)nc2NCCCn2ccnc2)C1 the result was 10.3%.
For c1cnc(N2CCC3(CCCN(CC4CCCCC4)C3)C2)cn1 (centres unmarked) the result was 7.143%.
For Cc1nc[nH]c1CNCc1cccnc1N(C)C1CCCCC1 the result was 8.657%.
For CC(C)c1ccc(S(=O)(=O)N2CSCC2C(=O)NCC(F)(F)F)cc1 (centres unmarked) the result was 18.62%.
For CC(C)c1cc(NC(=O)c2ccncc2)[nH]n1 the result was 9.972%.
For CC(C(N)=O)N1CCN(c2ncc(Br)cn2)CC1 (centres unmarked) the result was 6.425%.
For O=C(O)CC(CC(=O)NCCc1ccsc1)c1cccs1 (centres unmarked) the result was 16.82%.
For Cc1cnn(CC2CCCN2C(=O)c2ccc3nnc(C)n3c2)c1 (centres unmarked) the result was -2.454%.
For COc1ccc(NC(=O)C2CC(=O)N(C)C2)cn1 (centres unmarked) the result was 21.11%.
For CN(C)c1cc(CNC(=O)NCC2(C)CCCS2)ccn1 (centres unmarked) the result was 12.11%.
For O=S(=O)(NC[C@H]1C[C@@H]2CCN1C[C@@H]2CN1CCOCC1)c1ccccc1 the result was 12.09%.

The last 5 entries again:

structure	inhibition
O=C(O)CC(CC(=O)NCCc1ccsc1)c1cccs1 (centres unmarked)	16.82
Cc1cnn(CC2CCCN2C(=O)c2ccc3nnc(C)n3c2)c1 (centres unmarked)	-2.454
COc1ccc(NC(=O)C2CC(=O)N(C)C2)cn1 (centres unmarked)	21.11
CN(C)c1cc(CNC(=O)NCC2(C)CCCS2)ccn1 (centres unmarked)	12.11
O=S(=O)(NC[C@H]1C[C@@H]2CCN1C[C@@H]2CN1CCOCC1)c1ccccc1	12.09